Results deposited as PubChem BioAssay AID504764 (Drosophila RNAi Screening Center, 2011)
In all, the deposit lists about 22,000 reagents; below is an unselected part of those that have a named target and a result. Of all reagents, 403 (1.9%) were called active. 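Unnormalised raw counts per well; ratio z-scores behind the hit calls and whether each hit raises or lowers signal are not deposited.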 Not given: the amount of reagent.

Assay: 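Knock-downs that raise or lower a Notch target reporter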 (primary screen)
System: Drosophila Kc167 cells
Knock-down reagent: long dsRNA against Drosophila genes
Time to read-out: about 5 days (4 days dsRNA, then 24 h after transfection)
Conditions: transfection of constitutively active membrane-tethered Notch lacking the extracellular domain, read 24 h later
Read-out: 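Firefly luciferase from an E(spl)m3 reporter with active Notch, plus control-promoter and uninduced reporter wells for normalisation; unnormalised counts, duplicate wells a and b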
Reading the numbers: induced reporter light, run 1, well a and induced reporter light, run 1, well b: higher = more light from the Notch target reporter with active Notch; control promoter light, run 1, well a and control promoter light, run 1, well b: higher = more light from the viral control promoter (cell number, transfection, viability); uninduced reporter light, run 1, well a: higher = more light from the Notch target reporter without active Notch
Rule for the call: 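Hit if the duplicate-averaged log2 ratio of induced to control-promoter light gives a plate-wise z beyond ±2, or induced to uninduced beyond ±1.8; weak-control or discordant-duplicate wells dropped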
Meaning of the calls: active = modifier hit (raised or lowered Notch signal); inactive = not a hit

Gene,dsRNA,"induced reporter light, run 1, well a","induced reporter light, run 1, well b","control promoter light, run 1, well a","control promoter light, run 1, well b","uninduced reporter light, run 1, well a",outcome
CG17108,DRSC02576,81535,1.21e5,65170,77460,14390,inactive
cav,DRSC15995,1.49e5,1.51e5,1.94e5,1.97e5,15905,inactive
CG15531,DRSC15068,1.15e5,1.38e5,1.70e5,1.59e5,11155,inactive
Pex12,DRSC00622,1.28e5,1.05e5,1.38e5,68815,9250,inactive
Nsun2,DRSC18662,1.68e5,2.01e5,2.29e5,2.13e5,10890,inactive
CG6277,DRSC16008,84090,1.01e5,1.98e5,2.01e5,8865,inactive
CG12009,DRSC08217,1.10e5,96205,59640,31585,12805,inactive
CG9706,DRSC11095,1.67e5,1.87e5,90185,96970,10245,inactive
CG3492,DRSC04373,94330,78875,67010,62275,6385,inactive
CG6041,DRSC18396,1.63e5,1.56e5,3.01e5,2.97e5,9538,inactive
CG34181,DRSC01071,1.68e5,1.56e5,1.99e5,2.11e5,9550,inactive
CG14797,DRSC17955,1.21e5,1.28e5,1.99e5,1.77e5,9245,inactive
unc80,DRSC15329,1.43e5,1.80e5,2.16e5,1.86e5,13995,inactive
nrv1,DRSC03382,1.38e5,1.61e5,1.54e5,1.49e5,13242,inactive
Acf,DRSC14101,1.45e5,1.43e5,1.93e5,1.76e5,11600,inactive
CG33181,DRSC17971,1.36e5,1.78e5,2.16e5,2.11e5,12260,inactive
CG33181,DRSC22376,,,,,,inactive
CG1428,DRSC03708,40420,32585,38720,56165,2990,inactive
Trc8,DRSC15437,1.95e5,2.09e5,2.19e5,2.59e5,13388,inactive
Irk1,DRSC16106,1.12e5,1.12e5,1.49e5,1.40e5,10832,inactive

Individual results from the entries so far:
Under “control promoter light, run 1, well a”, nrv1 [DRSC03382] is entered as 1.54e5
Result for CG34181 [DRSC01071] under “control promoter light, run 1, well b”: 2.11e5
